From publication doi:10.1101/2020.06.13.147785
Results are given in words; binding and its absence hold for the method and conditions named. Binding seen in cells or lysates may run through a third protein. Some binding calls cover weakened binding; strength is not graded here.

By UniProt entry, the sequences of proteins in these tests, tags left out.
UniProt Q9QXZ7: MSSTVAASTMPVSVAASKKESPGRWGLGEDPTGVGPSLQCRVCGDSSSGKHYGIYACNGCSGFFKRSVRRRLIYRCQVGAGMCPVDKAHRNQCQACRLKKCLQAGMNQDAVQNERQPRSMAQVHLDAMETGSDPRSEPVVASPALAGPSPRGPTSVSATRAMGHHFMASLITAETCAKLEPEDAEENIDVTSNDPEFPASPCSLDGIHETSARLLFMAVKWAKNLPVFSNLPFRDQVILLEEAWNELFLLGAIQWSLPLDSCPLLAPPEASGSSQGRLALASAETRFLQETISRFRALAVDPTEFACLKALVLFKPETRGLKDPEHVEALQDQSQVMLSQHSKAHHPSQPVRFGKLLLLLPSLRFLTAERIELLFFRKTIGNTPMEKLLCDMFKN

Target: NR2E3 wild type (long isoform encoded by the 8 exons of mouse Nr2e3) (mouse) (UniProt Q9QXZ7)
Experiment: FRET or BRET

binding: binds
Substance: NR2E3 wild type (long isoform encoded by the 8 exons of mouse Nr2e3) (from UniProt Q9QXZ7 1-395)
